# According to the supplement of paper PMC8104966:
# Where “and” joins values, the source holds several entries; their conditions need not be identical. Identical values can stand only once. The list shows a part of the results. Single values are uncertain here, since repeats match poorly.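 Fusion between ACE2-bearing and full-length-spike-bearing U2OS cells was measured by imaging as the percentage of nuclei with both cell types' fluorescent markers. An inhibitory hit is a non-toxic compound whose fusion z-score is below -3, more than three standard deviations beneath the plate's DMSO wells.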
# Test system: U2OS ACE2 x SARS-CoV-2 spike co-culture
# Experiment: cell-cell fusion (fraction fused) z-score vs plate DMSO control; higher = more fusion
# Conditions: 30 µM; 5 h; toxicity class: non-toxic, passed QC
row,Structure (SMILES),cell-cell fusion (z-score)
1,Cn1nnnc1SCC1=C(C(=O)[O-])N2C(=O)C(NC(=O)C(O)c3ccccc3)C2SC1.[Na+] (centres undefined),inactive: 1.77
2,CC(=O)OCC(=O)[C@@]12OC(C)(C)O[C@@H]1CC1C3C[C@H](F)C4=CC(=O)C=C[C@]4(C)[C@@]3(F)[C@@H](O)C[C@@]12C (some centres undefined),inactive: -0.139
3,O=c1[nH]c(=O)c2ccccc2o1,inactive: 1.13
4,COc1cccc(-c2cc(=O)c3ccc(OC)cc3o2)c1,inactive: 4.1
5,FC(F)(F)COCC(F)(F)F,inactive: 1.8
6,CCC(Cc1c(I)cc(I)c(N)c1I)C(=O)O (centres undefined),inactive: 2.94
7,COC(=O)/C(=C1\OC(=O)C(c2ccccc2)=C1O)c1ccccc1,inactive: 1.43
8,CC(=O)NCC(=O)O.CC(=O)NCC(=O)O.N=C(N)c1ccc(/N=N/Nc2ccc(C(=N)N)cc2)cc1,inactive: 2.13
9,CC[C@@H]1C(=O)OC[C@@H]1Cc1cncn1C.Cl [(+)-Pilocarpine hydrochloride],inactive: 3.21
10,"CN(C)CCOc1ccc(/C(=C(/CCCl)c2ccccc2)c2ccccc2)cc1.O=C(O)CC(O)(CC(=O)O)C(=O)O [Toremifene Citrate (Fareston, Acapodene)]",inactive: 0.136
11,CCOc1cccc(C(=O)c2ccc(O)c(O)c2O)c1,inactive: 4.09
12,CCCCC/C=C/CCC(=O)N[C@H]1[C@H](Oc2c3cc4cc2Oc2ccc(cc2Cl)[C@@H](O[C@@H]2O[C@H](CO)[C@@H](O)[C@H](O)[C@H]2NC(C)=O)[C@@H]2NC(=O)[C@H](NC(=O)[C@@H]4NC(=O)[C@H]4NC(=O)C(Cc5ccc(c(Cl)c5)O3)NC(=O)[C@H](N)c3ccc(O)c(c3)Oc3cc(O)cc4c3)c3ccc(O)c(c3)-c3c(OC4O[C@H](CO)[C@@H](O)[C@H](O)[C@@H]4O)cc(O)cc3[C@@H](C(=O)O)NC2=O)O[C@H](CO)[C@@H](O)[C@@H]1O (some centres undefined) [TEICOPLANIN [A(2-1) shown]],inactive: 0.765
13,"CC(=O)[C@H]1CC[C@H]2[C@@H]3CCC4C[C@H](O)CC[C@]4(C)[C@H]3C[C@H](O)[C@]12C (stereo partly drawn) [3alpha,12alpha-DIHYDROXY-PREGNAN-20-ONE]",inactive: 2.58
14,CCOC(=O)[C@H](CCc1ccccc1)N[C@@H](C)C(=O)N1[C@H](C(=O)O)C[C@@H]2CCC[C@@H]21 [Ramipril],inactive: 1.17
15,CC(=O)O[C@]1(C(C)=O)CCC2C3C=C(Cl)C4=CC(=O)CC[C@]4(C)C3CC[C@@]21C (some centres undefined),inactive: 1.69
16,CC(=O)O[C@H]1CC[C@@]2(C)C(=CC[C@@H]3[C@@H]2CC[C@]2(C)C(=O)CC[C@@H]32)C1 [Dehydroepiandrosterone acetate],inactive: 3.22
17,O=C(C1CCCCC1)N1CC(=O)N2CCc3ccccc3C2C1 (centres undefined) [Praziquantel],inactive: 3.31
18,CCN(CC)CCNC(=O)c1c(C)[nH]c(/C=C2\C(=O)Nc3ccc(F)cc32)c1C.O=C(O)C[C@H](O)C(=O)O [Sunitinib],inactive: 1.43
19,CCOC(=O)C(C)(C)Oc1ccc(Cl)cc1 [Clofibrate],inactive: 3.84
20,c1ccc2c(c1)Nc1ccccc1S2,inactive: -1.82
21,C[C@]12C=CC(=O)C=C1CCC1C2C(=O)C[C@@]2(C)C1CC[C@]2(O)C(=O)CO (some centres undefined),inactive: 1.61
22,CN1CCN(c2nc(C3=C(c4c[nH]c5ccccc45)C(=O)NC3=O)c3ccccc3n2)CC1 [Sotrastaurin (AEB071)],inactive: 1.92

row,Structure (SMILES),cell-cell fusion (z-score)
1,O=C(Oc1ccccc1C(=O)O)c1ccccc1O,inactive: 0.578
2,CS(=O)(=O)O.Oc1ccc2c3c1O[C@H]1c4oc5ccccc5c4C[C@@]4(O)C(C2)N(CC2CC2)CCC314 (some centres undefined) [Naltriben methanesulfonate],inactive: 3.48
3,CCC(C)C(N)C1=NC(C(=O)NC(CC(C)C)C(=O)NC(CCC(=O)O)C(=O)NC(C(=O)NCCCCC2NC(=O)C(CC(N)=O)NC(=O)C(CC(=O)O)NC(=O)C(Cc3c[nH]cn3)NC(=O)C(Cc3ccccc3)NC(=O)C(C(C)CC)NC(=O)C(CCCN)NC2=O)C(C)CC)CS1 (centres undefined),inactive: 0.919
4,Cc1ccc(NC(=O)c2cccc(C(C)(C)C#N)c2)cc1Nc1ccc2ncn(C)c(=O)c2c1,inactive: 1.24 and inactive: 1.61
5,CCc1ccc(CCOc2ccc(CC3SC(=O)NC3=O)cc2)nc1.Cl (centres undefined) [Pioglitazone hydrochloride],inactive: 0.829
6,Br.C#CCOC(=O)C1=CCCN(C)C1 [Arecaidine propargyl ester hydrobromide],inactive: 2.32
7,Cc1ccc(S(=O)(=O)NC(=O)NN2CC3CCCC3C2)cc1 (centres undefined),inactive: 1.69
8,"CC1=CC(=O)CC(C)(C)C1(O)/C=C/C(C)=C\C(=O)O (mixture of isomers) [ABSCISIC ACID (cis,trans; +/-)]",inactive: 2.43
9,COc1ccccc1N1CCNCC1.Cl,inactive: 4.3
10,Clc1ccc(C(Cn2ccnc2)OCc2ccsc2Cl)c(Cl)c1 (centres undefined),inactive: -0.886
11,N=C(N)NOCC[C@H](N)C(=O)O [L-Canavanine],inactive: 3.23
12,O=C(CCCN1CCC(O)(c2ccc(Cl)cc2)CC1)c1ccc(F)cc1 [Haloperidol],inactive: 4.44
13,CC(/C=C/c1cccc(Oc2ccc(F)cc2)c1)N(O)C(N)=O (centres undefined),inactive: 1.83
14,Cc1cc(CCC[C@H](CC(=O)NO)C(=O)N[C@H](C(=O)N[C@H](C)c2ccccc2)C(C)(C)C)ccc1-c1ccccc1,active: -18.4
15,Cc1ncc(CO)c(CO)c1O,inactive: 1.17
16,C[C@]12C=CC(=O)C=C1CCC1C2[C@@H](O)C[C@@]2(C)C1CC[C@]2(O)C(=O)COP(=O)([O-])[O-].[Na+].[Na+] (some centres undefined),inactive: 1.51
17,CC(=O)NC(Cc1ccccc1)C(=O)O (centres undefined),inactive: 3.96
18,CCN[C@@H]1C[C@H](C)S(=O)(=O)c2sc(S(N)(=O)=O)cc21.Cl [Dorzolamide HCL],inactive: 1.31
19,CC(C)[N+](C)(CCOC(=O)C1c2ccccc2Oc2ccccc21)C(C)C.[Br-] [Propantheline bromide],inactive: 2.14
20,CC(C)(C)c1cc(/C=C(\C#N)C(N)=S)cc(C(C)(C)C)c1O [Tyrphostin AG 879],inactive: 2.7
21,O=C1O[C@H]([C@@H](O)CO)C(O)=C1O [L(+)-Ascorbic acid],inactive: 4.34
22,COc1cccc([C@]2(O)CCCC[C@H]2CN(C)C)c1.Cl,inactive: 3.87

row,Structure (SMILES),cell-cell fusion (z-score)
1,Clc1ccc(CSC(Cn2ccnc2)c2ccc(Cl)cc2Cl)cc1.O=[N+]([O-])O (centres undefined) [Sulconazole Nitrate],inactive: -2.07
2,Cl.NC[C@@H]1O[C@H](c2ccccc2)Cc2c1ccc(O)c2O,inactive: -0.688
3,COc1ccc(CN(CCN(C)C)c2ccccn2)cc1.O=C(O)/C=C\C(=O)O [Pyrilamine maleate],inactive: 2.09
4,COc1ccc(CN(CCN(C)C)c2ccccn2)cc1.O=C(O)/C=C\C(=O)O,inactive: 1.95
5,NS(=O)(=O)c1cc2c(cc1C(F)(F)F)NC(Cc1ccccc1)NS2(=O)=O (centres undefined) [Bendroflumethiazide],inactive: 1.7
6,CC1(C)S[C@@H]2[C@H](NC(=O)[C@H](N)c3ccc(O)cc3)C(=O)N2[C@H]1C(=O)O [Amoxicillin],inactive: 1.79
7,O=C(CCCN1CC=C(n2c(=O)[nH]c3ccccc32)CC1)c1ccc(F)cc1,inactive: -1.45
8,COC(=O)c1ccc(O)c(NC(=O)COc2ccc(C34CC5CC(CC(C5)C3)C4)cc2)c1 [Hypoxia Inducible Factor-1α Inhibitor],inactive: 0.989
9,NC(Cc1ccc(Cl)cc1)C(=O)O (racemic) [(±)-p-Chlorophenylalanine],inactive: 1.76
10,CN(C)C(=O)C(CCN1CCC(O)(c2ccc(Cl)cc2)CC1)(c1ccccc1)c1ccccc1.Cl [Loperamide hydrochloride],inactive: 0.0728
11,O=C1c2ccccc2C(=O)C1c1ccc(Cl)cc1,inactive: 2.14
12,C[N+](C)(C)CCCCCC[N+](C)(C)C.[Br-].[Br-] [Hexamethonium bromide],inactive: 3.97
13,C[N+](C)(C)CCCCCC[N+](C)(C)C.[Br-].[Br-],inactive: 2.98
14,CN1CCc2cc(NC(=O)Nc3cccnc3)ccc21.Cl,inactive: 2.54
15,CC(C)(C)c1ccc(/C=C/C(=O)Nc2ccc3c(c2)OCCO3)cc1,active: -17
16,CC(C)C[C@H](NC(=O)C1OC1C(=O)O)C(=O)NCCCCNC(=N)N (some centres undefined),inactive: 1.52
17,Clc1ccc(COC(Cn2ccnc2)c2ccc(Cl)cc2Cl)c(Cl)c1.O=[N+]([O-])O (centres undefined) [Miconazole nitrate],active: -3.2
18,CC(C)NC(=N)NC(=N)Nc1ccc(Cl)cc1.Cl [Proguanil hydrochloride],inactive: 1.74
19,CC(C)c1ccc2oc3nc(N)c(C(=O)O)cc3c(=O)c2c1,inactive: 2.21
20,C[C@H](CCC(=O)NCCS(=O)(=O)O)[C@H]1CC[C@H]2[C@@H]3[C@@H](O)C[C@@H]4C[C@H](O)CC[C@]4(C)[C@H]3CC[C@]12C [Tauroursodeoxycholic Acid],inactive: 0.888
